No constants are given. Whether binding was seen depends on the method and setting. Binding calls can cover weak binding; strength is not graded here. For some of these results: Tags and fused reporters may be left off the sequences shown. For some of these results: Binding seen in cells or lysates may run through a third protein.

Among the data in PMC6508501, “Conserved redox‐dependent DNA binding of ROXY glutaredoxins with TGA transcription factors” are binding values, retold here.

Test [1] concerns the target T1, PAN (MBP fusion) (Arabidopsis thaliana) (UniProt Q9SX27).
T1 sequence: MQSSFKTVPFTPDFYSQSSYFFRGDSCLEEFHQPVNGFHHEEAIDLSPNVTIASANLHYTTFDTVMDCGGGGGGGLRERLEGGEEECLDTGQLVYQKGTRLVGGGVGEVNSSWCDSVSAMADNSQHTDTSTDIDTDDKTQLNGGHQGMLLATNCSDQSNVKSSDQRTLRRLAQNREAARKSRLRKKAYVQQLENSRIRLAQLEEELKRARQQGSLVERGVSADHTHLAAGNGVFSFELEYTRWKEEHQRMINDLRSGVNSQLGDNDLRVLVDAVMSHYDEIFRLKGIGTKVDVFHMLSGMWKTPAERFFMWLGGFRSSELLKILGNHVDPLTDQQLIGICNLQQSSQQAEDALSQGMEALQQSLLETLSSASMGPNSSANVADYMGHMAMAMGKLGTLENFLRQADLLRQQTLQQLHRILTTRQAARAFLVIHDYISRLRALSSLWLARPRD
Briefly: native gel or EMSA; supershift of the PAN/as-1-like bands; A. thaliana ROXY1 protein (source not told) added to PAN and 6-FAM-labelled as-1-like oligonucleotide. In general terms: In EMSA bound probe runs differently from free probe, usually more slowly.

Test [2] addresses T2, BD-PAN (Arabidopsis thaliana) (UniProt Q9SX27).
T2 sequence: T1 sequence
The test can be described thus: two-hybrid; yeast; AD-MpROXY1/2 as prey, BD-MpTGA/PAN as bait; interaction strength quantified by ß-galactosidase reporter gene expression. (In a reporter assay the amount or activity of a reporter protein is the signal.)

Test [3] has as its target T1, PAN (MBP fusion) (Arabidopsis thaliana). Briefly: native gel or EMSA; supershift of the PAN/as-1-like bands; purified MBP-MpROXY1 or MBP-MpROXY2 added to PAN and 6-FAM-labelled as-1-like oligonucleotide; both purified.
For test [4], the target named is T3, YC-PAN (Arabidopsis thaliana) (UniProt Q9SX27).
T3 sequence: T1 sequence
The test can be described thus: split reporter; BiFC; YN and YC fusions coinfiltrated by Agrobacterium into N. benthamiana leaf epidermis cells; nuclear YFP fluorescence four days later.

For “A. thaliana ROXY1 protein (EMSA) (Arabidopsis thaliana)”, the binding entry in test [1] is on record as “binds”.

Turning to AD-MpROXY1 (Marchantia polymorpha), the binding entry in test [2] is given as “binds”.

With AD-MpROXY2 (Marchantia polymorpha), the binding entry in test [2] is “binds”.

For the substance MBP-MpROXY1 (Marchantia polymorpha), in test [3], the binding entry is on record as “binds”.

On to MBP-MpROXY2 (Marchantia polymorpha), for which the binding entry in test [3] is on record as “binds”.

YN-MpROXY1 (Marchantia polymorpha): in test [4], the binding result was “binds”.

Take YN-MpROXY2 (Marchantia polymorpha): the binding entry in test [4] is on record as “binds”.
